# The other results are listed elsewhere or left out. The data scatter; read single values as rough.
# Target: T1, ZFYVE16 C895 (UniProt Q7Z3T8)
# T1 sequence (whole entry): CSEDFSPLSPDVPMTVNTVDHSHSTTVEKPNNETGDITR
# Assay: log2 mean competition ratio of IA-DTB cysteine labelling (DMSO/compound) (log2 ratio); higher = stronger cysteine engagement by compound
# Details: 50 µM; treatment time: 4 h; cell line lysate: HEK293T
# Method: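 IA-DTB competitive cysteine chemoproteomics in HEK293T RIPA lysate. Lysates were treated with compound 29 or 30 at 50 or 200 µM for 4 h, then IA-DTB (500 µM, 1 h), trypsin-digested, NeutrAvidin-enriched and analysed by diaPASEF. Competition ratio = intensity DMSO / intensity compound (n=4 treated, n=64 DMSO); binding: mean log2 CR ≥ 1 and p ≤ 0.05 plus QC filters. Target is the cysteine site.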
row,SMILES,log2 mean competition ratio
1,O=C(CCl)N[C@@H]1CCCc2ccccc21,-0.242
2,O=C(CCl)N[C@H]1CCCc2ccccc21,0.414

# Same assay, conditions: 200 µM; treatment time: 4 h; cell line lysate: HEK293T
row,SMILES,log2 mean competition ratio
1,O=C(CCl)N[C@@H]1CCCc2ccccc21,-0.264
2,O=C(CCl)N[C@H]1CCCc2ccccc21,-0.312
